Test results taken from the supplement of paper PMC4604168 (melanoma cell lines).
The list shows a part of the results. Repeats are few or missing, and single values can be far off.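 Cells were imaged in 1,536-well plates, and nuclei stained with an antibody against cleaved PARP were counted against all DNA-stained nuclei to give the apoptosis fraction. Screening doses were chosen to leave most cells alive, and resting and induced cleaved-PARP levels differ strongly between cell lines.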

Columns and labels:
Test in all cases: cleaved PARP positive nuclei fraction relative to DMSO control; melanoma cells; higher = more apoptosis
Details in all cases: library dose: low library concentration; 72 h
MZ2-MEL = test system: MZ2-MEL
MeWo = test system: MeWo
RPMI7951 = test system: RPMI7951
RVH-421 = test system: RVH-421
SkMel28 = test system: SkMel28
SkMel30 = test system: SkMel30
UACC62 = test system: UACC62
WM115 = test system: WM115
WM1716 = test system: WM1716
WM1745 = test system: WM1745
WM3526 = test system: WM3526
WM3619 = test system: WM3619
WM451Lu = test system: WM451Lu
SkMel2 = test system: SkMel2
SkMel5 = test system: SkMel5
UACC257 = test system: UACC257

| SMILES | cleaved PARP positive nuclei fraction (MZ2-MEL) [%] | cleaved PARP positive nuclei fraction (MeWo) [%] | cleaved PARP positive nuclei fraction (RPMI7951) [%] | cleaved PARP positive nuclei fraction (RVH-421) [%] | cleaved PARP positive nuclei fraction (SkMel28) [%] | cleaved PARP positive nuclei fraction (SkMel30) [%] | cleaved PARP positive nuclei fraction (UACC62) [%] | cleaved PARP positive nuclei fraction (WM115) [%] | cleaved PARP positive nuclei fraction (WM1716) [%] | cleaved PARP positive nuclei fraction (WM1745) [%] | cleaved PARP positive nuclei fraction (WM3526) [%] | cleaved PARP positive nuclei fraction (WM3619) [%] | cleaved PARP positive nuclei fraction (WM451Lu) [%] | cleaved PARP positive nuclei fraction (SkMel2) [%] | cleaved PARP positive nuclei fraction (SkMel5) [%] | cleaved PARP positive nuclei fraction (UACC257) [%] |
| --- | --- | --- | --- | --- | --- | --- | --- | --- | --- | --- | --- | --- | --- | --- | --- | --- |
| CO[C@H]1C[C@@H]2CC[C@@H](C)[C@@](O)(O2)C(=O)C(=O)N2CCCC[C@H]2C(=O)O[C@H]([C@H](C)C[C@@H]2CC[C@@H](OCCO)[C@H](OC)C2)CC(=O)[C@H](C)/C=C(\C)[C@@H](O)[C@@H](OC)C(=O)[C@H](C)C[C@H](C)/C=C/C=C/C=C/1C [everolimus] + Cn1nnc2c(C(N)=O)ncn2c1=O [temozolomide] (first compound 0.02 µM, partner dose 2 µM) | 33.7 | 104 | 91.4 | 103 | 114 | 32.6 | 133 | 60.7 | 45 | 133 | 204 | 159 | 48.6 |  |  |  |
| O=C(O)[C@@H]1[O][Sb](=[O])([O][Sb]2(=[O])[O][C@H]([C@H](O)CO)[C@H](O)[C@H](C(=O)O)[O]2)[O][C@H]([C@H](O)CO)[C@@H]1O (some centres not stated) [stibogluconate] + CO[C@H]1C[C@@H]2CC[C@@H](C)[C@@](O)(O2)C(=O)C(=O)N2CCCC[C@H]2C(=O)O[C@H]([C@H](C)C[C@@H]2CC[C@@H](OCCO)[C@H](OC)C2)CC(=O)[C@H](C)/C=C(\C)[C@@H](O)[C@@H](OC)C(=O)[C@H](C)C[C@H](C)/C=C/C=C/C=C/1C [everolimus] (first compound 2 µM, partner dose 0.02 µM) | 97.9 | 56.5 | 37.4 | 155 | 170 | 41.7 | 144 | 140 | 44.2 | 96.4 | 76.7 | 95.4 | 223 |  |  |  |
| O=C(O)c1ccc2c(c1)nc(Nc1cccc(Cl)c1)c1ccncc12 + Cc1cc([N+](=O)[O-])ccc1NS(=O)(=O)c1cc(Cl)ccc1Cl [FH535] (first compound 0.4 µM, partner dose 1 µM) |  | 28.4 | 60.2 | 31.1 | 79.3 | 30.6 | 180 | 60.1 | 110 | 92.7 | 89 | 77.2 | 61.3 | 76.3 | 81 | 115 |
| O=C(O)[C@@H]1[O][Sb](=[O])([O][Sb]2(=[O])[O][C@H]([C@H](O)CO)[C@H](O)[C@H](C(=O)O)[O]2)[O][C@H]([C@H](O)CO)[C@@H]1O (some centres not stated) [stibogluconate] + C[C@]1(c2nc3c(C(N)=O)cccc3[nH]2)CCCN1 [Veliparib] (first compound 2 µM, partner dose 1.4 µM) | 51.3 | 55.1 | 114 | 38.9 | 86.3 | 85.9 | 111 | 211 | 38.3 | 97.4 | 154 | 87.3 | 73.8 |  |  |  |
| Nc1ncn([C@H]2C[C@H](O)[C@@H](CO)O2)c(=O)n1 [decitabine] + Cn1cncc1[C@@](N)(c1ccc(Cl)cc1)c1ccc2c(c1)c(-c1cccc(Cl)c1)cc(=O)n2C [tipifarnib] (first compound 0.1 µM, partner dose 0.01 µM) |  | 47.5 | 65.2 | 137 | 55.1 | 104 | 209 | 157 | 130 | 100 | 320 | 105 | 63.8 | 215 | 69.5 | 60.3 |
| Cc1cc(Nc2cc(N3CCN(C)CC3)nc(/C=C/c3ccccc3)n2)n[nH]1 + NCC(=O)Nc1ccc(-n2nc(C(F)(F)F)cc2-c2ccc3c(ccc4ccccc43)c2)cc1 [OSU03012] (first compound 0.04 µM, partner dose 1 µM) |  | 62.2 | 78.2 | 66.5 | 305 | 136 | 210 | 88.4 | 90.3 | 85.7 | 115 | 124 | 112 | 74 | 225 | 141 |
| O=C(O)[C@@H]1[O][Sb](=[O])([O][Sb]2(=[O])[O][C@H]([C@H](O)CO)[C@H](O)[C@H](C(=O)O)[O]2)[O][C@H]([C@H](O)CO)[C@@H]1O (some centres not stated) [stibogluconate] + COc1cc2ncnc(Nc3ccc(Oc4ccccc4)cc3)c2cc1OC [SrcI1] (first compound 2 µM, partner dose 2 µM) |  | 40.2 | 132 | 64.5 | 36.2 | 54.4 | 89.2 | 92.8 | 84.5 | 101 | 76.3 | 79.3 | 189 | 70.7 | 67.6 | 51.3 |
| O=C(O)[C@@H]1[O][Sb](=[O])([O][Sb]2(=[O])[O][C@H]([C@H](O)CO)[C@H](O)[C@H](C(=O)O)[O]2)[O][C@H]([C@H](O)CO)[C@@H]1O (some centres not stated) [stibogluconate] + Nc1ncn([C@H]2C[C@H](O)[C@@H](CO)O2)c(=O)n1 [decitabine] (first compound 2 µM, partner dose 0.1 µM) |  | 66.4 | 45.4 | 81.9 | 70.6 | 58.3 | 299 | 190 | 126 | 88.1 | 69.8 | 92 | 81.4 | 72.7 |  |  |
| CO[C@H]1C[C@@H]2CC[C@@H](C)[C@@](O)(O2)C(=O)C(=O)N2CCCC[C@H]2C(=O)O[C@H]([C@H](C)C[C@@H]2CC[C@@H](OCCO)[C@H](OC)C2)CC(=O)[C@H](C)/C=C(\C)[C@@H](O)[C@@H](OC)C(=O)[C@H](C)C[C@H](C)/C=C/C=C/C=C/1C [everolimus] + C#Cc1cccc(Nc2ncnc3cc(OCCOC)c(OCCOC)cc23)c1 [erlotinib] (first compound 0.02 µM, partner dose 0.8 µM) | 45.7 | 139 | 118 | 114 | 194 | 174 | 226 | 154 | 359 | 115 | 48.1 | 96.7 | 71.8 |  |  |  |
| CO[C@H]1C[C@@H]2CC[C@@H](C)[C@@](O)(O2)C(=O)C(=O)N2CCCC[C@H]2C(=O)O[C@H]([C@H](C)C[C@@H]2CC[C@@H](OCCO)[C@H](OC)C2)CC(=O)[C@H](C)/C=C(\C)[C@@H](O)[C@@H](OC)C(=O)[C@H](C)C[C@H](C)/C=C/C=C/C=C/1C [everolimus] + CC(=O)c1c(C)c2cnc(Nc3ccc(N4CCNCC4)cn3)nc2n(C2CCCC2)c1=O [palbociclib] (first compound 0.02 µM, partner dose 0.04 µM) | 124 | 177 | 88.6 | 277 | 240 | 172 | 271 | 46.3 | 217 | 131 | 257 | 307 | 319 |  |  |  |
| C[C@@H](Oc1cc(-c2cnn(C3CCNCC3)c2)cnc1N)c1c(Cl)ccc(F)c1Cl [Crizotinib] + O=C(Nc1cccc(Cl)c1)Nc1ncc(CCNc2ncnc3ccsc23)s1 [SNS314] (first compound 0.2 µM, partner dose 0.0008 µM) |  | 54.4 | 280 | 80 | 43.1 | 116 | 146 | 172 | 91.3 | 80.9 | 59.9 | 226 | 365 | 161 | 139 | 71.4 |
| CO[C@H]1C[C@@H]2CC[C@@H](C)[C@@](O)(O2)C(=O)C(=O)N2CCCC[C@H]2C(=O)O[C@H]([C@H](C)C[C@@H]2CC[C@@H](OCCO)[C@H](OC)C2)CC(=O)[C@H](C)/C=C(\C)[C@@H](O)[C@@H](OC)C(=O)[C@H](C)C[C@H](C)/C=C/C=C/C=C/1C [everolimus] + C=C(c1ccc(C(=O)O)cc1)c1cc2c(cc1C)C(C)(C)CCC2(C)C [Bexarotene] (first compound 0.02 µM, partner dose 2 µM) | 186 | 46.1 | 247 | 64.5 | 419 | 56.1 | 425 | 165 | 72.1 | 105 | 71.4 | 102 | 234 |  |  |  |
| CC(C)C[C@H](NC(=O)[C@H](Cc1ccccc1)NC(=O)c1cnccn1)B(O)O [Bortezomib] + CC1(C)NC(=O)N(c2ccc([N+](=O)[O-])c(C(F)(F)F)c2)C1=O [nilutamide] (first compound 0.001 µM, partner dose 1 µM) |  | 108 | 62.4 | 241 | 49.3 | 50.9 | 57.1 | 43.7 | 541 | 132 | 66.4 | 438 | 127 | 66.5 | 109 | 75.3 |
| CO[C@H]1C[C@@H]2CC[C@@H](C)[C@@](O)(O2)C(=O)C(=O)N2CCCC[C@H]2C(=O)O[C@H]([C@H](C)C[C@@H]2CC[C@@H](OCCO)[C@H](OC)C2)CC(=O)[C@H](C)/C=C(\C)[C@@H](O)[C@@H](OC)C(=O)[C@H](C)C[C@H](C)/C=C/C=C/C=C/1C [everolimus] + Nc1ccn([C@@H]2O[C@H](CO)[C@@H](O)C2(F)F)c(=O)n1 [gemcitabine] (first compound 0.02 µM, partner dose 0.0004 µM) | 102 | 103 | 83.2 | 108 | 141 | 102 | 357 | 113 | 119 | 257 | 154 | 155 | 54 |  |  |  |
| CS(=O)(=O)CCNCc1ccc(-c2ccc3ncnc(Nc4ccc(OCc5cccc(F)c5)c(Cl)c4)c3c2)o1 [lapatinib] + O=c1cc(-c2cccc3c2Sc2ccccc2S3)oc(N2CCOCC2)c1 [KU55933] (first compound 0.8 µM, partner dose 1 µM) |  | 135 | 116 | 64.4 | 21.5 | 77.4 | 91.8 | 159 | 141 | 89.3 | 92.9 | 96.6 | 145 | 49.8 | 86.5 | 93.3 |
| C[C@@H](Oc1cc(-c2cnn(C3CCNCC3)c2)cnc1N)c1c(Cl)ccc(F)c1Cl [Crizotinib] + CO[C@H]1C[C@@H]2CC[C@@H](C)[C@@](O)(O2)C(=O)C(=O)N2CCCC[C@H]2C(=O)O[C@H]([C@H](C)C[C@@H]2CC[C@@H](OCCO)[C@H](OC)C2)CC(=O)[C@H](C)/C=C(\C)[C@@H](O)[C@@H](OC)C(=O)[C@H](C)C[C@H](C)/C=C/C=C/C=C/1C [everolimus] (first compound 0.2 µM, partner dose 0.02 µM) | 71.4 | 74.4 | 124 | 293 | 212 | 130 | 236 | 141 | 189 | 107 | 119 | 122 | 288 |  |  |  |

Laid out differently: entries from further up.
SMILES | cleaved PARP positive nuclei fraction (MZ2-MEL) [%] | cleaved PARP positive nuclei fraction (MeWo) [%] | cleaved PARP positive nuclei fraction (RPMI7951) [%] | cleaved PARP positive nuclei fraction (RVH-421) [%] | cleaved PARP positive nuclei fraction (SkMel28) [%] | cleaved PARP positive nuclei fraction (SkMel30) [%] | cleaved PARP positive nuclei fraction (UACC62) [%] | cleaved PARP positive nuclei fraction (WM115) [%] | cleaved PARP positive nuclei fraction (WM1716) [%] | cleaved PARP positive nuclei fraction (WM1745) [%] | cleaved PARP positive nuclei fraction (WM3526) [%] | cleaved PARP positive nuclei fraction (WM3619) [%] | cleaved PARP positive nuclei fraction (WM451Lu) [%] | cleaved PARP positive nuclei fraction (SkMel2) [%] | cleaved PARP positive nuclei fraction (SkMel5) [%] | cleaved PARP positive nuclei fraction (UACC257) [%]
C[C@@H](Oc1cc(-c2cnn(C3CCNCC3)c2)cnc1N)c1c(Cl)ccc(F)c1Cl [Crizotinib] + O=C(Nc1cccc(Cl)c1)Nc1ncc(CCNc2ncnc3ccsc23)s1 [SNS314] (first compound 0.2 µM, partner dose 0.0008 µM) |  | 54.4 | 280 | 80 | 43.1 | 116 | 146 | 172 | 91.3 | 80.9 | 59.9 | 226 | 365 | 161 | 139 | 71.4
CO[C@H]1C[C@@H]2CC[C@@H](C)[C@@](O)(O2)C(=O)C(=O)N2CCCC[C@H]2C(=O)O[C@H]([C@H](C)C[C@@H]2CC[C@@H](OCCO)[C@H](OC)C2)CC(=O)[C@H](C)/C=C(\C)[C@@H](O)[C@@H](OC)C(=O)[C@H](C)C[C@H](C)/C=C/C=C/C=C/1C [everolimus] + Nc1ccn([C@@H]2O[C@H](CO)[C@@H](O)C2(F)F)c(=O)n1 [gemcitabine] (first compound 0.02 µM, partner dose 0.0004 µM) | 102 | 103 | 83.2 | 108 | 141 | 102 | 357 | 113 | 119 | 257 | 154 | 155 | 54 |  |  | 
